Data reported in the supplement of paper PMC10849652.
Some of the results follow.

By UniProt entry, the sequences of proteins in these tests, tags left out. Where a name states a change or a piece, a line headed by the entry shows the natural chain unless it says otherwise.
UniProt Q96RS6: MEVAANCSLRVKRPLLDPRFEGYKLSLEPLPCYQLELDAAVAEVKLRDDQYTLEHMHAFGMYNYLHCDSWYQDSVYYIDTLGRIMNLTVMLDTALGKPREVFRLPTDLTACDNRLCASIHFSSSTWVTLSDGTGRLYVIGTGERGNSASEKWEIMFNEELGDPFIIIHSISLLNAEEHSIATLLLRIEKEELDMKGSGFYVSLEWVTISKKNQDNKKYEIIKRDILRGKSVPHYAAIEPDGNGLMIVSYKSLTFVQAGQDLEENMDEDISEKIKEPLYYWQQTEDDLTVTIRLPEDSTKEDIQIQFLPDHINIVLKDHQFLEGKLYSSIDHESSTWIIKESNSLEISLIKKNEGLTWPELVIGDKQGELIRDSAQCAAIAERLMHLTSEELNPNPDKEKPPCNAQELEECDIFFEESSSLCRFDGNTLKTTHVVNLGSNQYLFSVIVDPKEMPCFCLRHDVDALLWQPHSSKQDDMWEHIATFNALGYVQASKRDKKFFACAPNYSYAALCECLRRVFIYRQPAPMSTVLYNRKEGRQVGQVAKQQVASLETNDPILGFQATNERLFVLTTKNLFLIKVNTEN
UniProt Q9Y266: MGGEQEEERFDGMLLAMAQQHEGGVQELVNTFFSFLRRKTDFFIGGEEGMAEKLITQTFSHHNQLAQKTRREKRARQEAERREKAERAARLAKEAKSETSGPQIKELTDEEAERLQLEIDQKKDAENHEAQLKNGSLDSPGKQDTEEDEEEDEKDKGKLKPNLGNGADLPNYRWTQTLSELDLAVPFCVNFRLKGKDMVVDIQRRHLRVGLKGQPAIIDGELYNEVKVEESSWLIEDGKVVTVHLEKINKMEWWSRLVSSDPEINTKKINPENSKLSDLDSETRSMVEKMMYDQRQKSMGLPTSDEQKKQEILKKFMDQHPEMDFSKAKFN
UniProt Q9H6R4: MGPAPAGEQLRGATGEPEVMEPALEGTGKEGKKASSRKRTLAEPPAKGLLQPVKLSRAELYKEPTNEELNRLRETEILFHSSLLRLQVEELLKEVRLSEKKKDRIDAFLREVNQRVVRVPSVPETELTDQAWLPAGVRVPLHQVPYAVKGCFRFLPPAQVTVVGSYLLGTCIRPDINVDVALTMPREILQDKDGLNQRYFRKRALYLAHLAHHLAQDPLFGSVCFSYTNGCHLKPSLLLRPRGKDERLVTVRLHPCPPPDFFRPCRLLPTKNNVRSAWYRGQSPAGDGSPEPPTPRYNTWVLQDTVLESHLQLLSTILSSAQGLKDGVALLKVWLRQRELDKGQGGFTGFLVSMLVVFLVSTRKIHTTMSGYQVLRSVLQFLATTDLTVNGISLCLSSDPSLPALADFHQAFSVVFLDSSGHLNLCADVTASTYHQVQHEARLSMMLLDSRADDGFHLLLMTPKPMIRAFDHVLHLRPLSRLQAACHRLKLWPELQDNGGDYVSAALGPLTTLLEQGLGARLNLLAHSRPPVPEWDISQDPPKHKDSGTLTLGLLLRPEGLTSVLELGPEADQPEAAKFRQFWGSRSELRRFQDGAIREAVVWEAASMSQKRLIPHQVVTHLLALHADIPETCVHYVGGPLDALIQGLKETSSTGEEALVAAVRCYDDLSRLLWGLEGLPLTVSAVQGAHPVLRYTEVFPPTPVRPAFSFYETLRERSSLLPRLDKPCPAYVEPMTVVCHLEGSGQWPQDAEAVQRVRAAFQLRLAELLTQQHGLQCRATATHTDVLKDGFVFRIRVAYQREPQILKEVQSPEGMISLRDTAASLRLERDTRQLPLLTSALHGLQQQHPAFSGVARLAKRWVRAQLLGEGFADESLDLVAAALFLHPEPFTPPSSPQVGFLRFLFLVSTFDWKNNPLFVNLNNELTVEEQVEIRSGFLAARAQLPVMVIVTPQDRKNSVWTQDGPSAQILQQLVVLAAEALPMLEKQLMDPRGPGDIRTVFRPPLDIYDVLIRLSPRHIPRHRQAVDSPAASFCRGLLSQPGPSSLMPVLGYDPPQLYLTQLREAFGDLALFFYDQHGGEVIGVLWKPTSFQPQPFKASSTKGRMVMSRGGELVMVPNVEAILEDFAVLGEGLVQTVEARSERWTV
UniProt Q13423: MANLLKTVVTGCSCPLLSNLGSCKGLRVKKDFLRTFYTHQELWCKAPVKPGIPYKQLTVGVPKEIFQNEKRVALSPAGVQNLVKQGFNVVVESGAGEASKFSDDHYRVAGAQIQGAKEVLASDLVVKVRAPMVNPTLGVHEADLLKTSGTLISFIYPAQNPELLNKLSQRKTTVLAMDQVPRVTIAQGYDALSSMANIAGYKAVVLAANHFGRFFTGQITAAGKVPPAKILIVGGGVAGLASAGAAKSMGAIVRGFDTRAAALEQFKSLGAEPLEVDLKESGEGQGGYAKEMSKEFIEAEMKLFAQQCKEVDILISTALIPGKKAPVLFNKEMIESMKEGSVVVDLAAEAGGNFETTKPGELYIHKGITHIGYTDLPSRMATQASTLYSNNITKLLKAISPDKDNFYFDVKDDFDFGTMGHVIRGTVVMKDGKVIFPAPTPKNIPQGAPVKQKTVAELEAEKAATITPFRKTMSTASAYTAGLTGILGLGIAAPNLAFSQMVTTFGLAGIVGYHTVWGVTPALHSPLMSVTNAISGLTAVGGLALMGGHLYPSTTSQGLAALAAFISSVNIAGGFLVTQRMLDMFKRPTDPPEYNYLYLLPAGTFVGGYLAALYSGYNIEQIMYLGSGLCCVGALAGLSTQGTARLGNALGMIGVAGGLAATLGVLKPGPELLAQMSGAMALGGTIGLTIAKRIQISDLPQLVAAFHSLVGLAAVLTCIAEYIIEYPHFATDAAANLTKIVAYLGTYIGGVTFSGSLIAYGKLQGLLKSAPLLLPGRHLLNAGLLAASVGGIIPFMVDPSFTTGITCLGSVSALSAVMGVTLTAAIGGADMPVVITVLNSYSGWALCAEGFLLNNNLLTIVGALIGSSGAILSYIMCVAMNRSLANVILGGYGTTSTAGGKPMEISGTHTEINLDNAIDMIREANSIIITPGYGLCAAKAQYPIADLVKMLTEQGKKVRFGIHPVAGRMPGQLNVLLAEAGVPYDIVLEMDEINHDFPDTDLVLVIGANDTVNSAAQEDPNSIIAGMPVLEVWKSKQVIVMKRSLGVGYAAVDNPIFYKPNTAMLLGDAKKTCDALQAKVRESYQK
UniProt Q5JPE7: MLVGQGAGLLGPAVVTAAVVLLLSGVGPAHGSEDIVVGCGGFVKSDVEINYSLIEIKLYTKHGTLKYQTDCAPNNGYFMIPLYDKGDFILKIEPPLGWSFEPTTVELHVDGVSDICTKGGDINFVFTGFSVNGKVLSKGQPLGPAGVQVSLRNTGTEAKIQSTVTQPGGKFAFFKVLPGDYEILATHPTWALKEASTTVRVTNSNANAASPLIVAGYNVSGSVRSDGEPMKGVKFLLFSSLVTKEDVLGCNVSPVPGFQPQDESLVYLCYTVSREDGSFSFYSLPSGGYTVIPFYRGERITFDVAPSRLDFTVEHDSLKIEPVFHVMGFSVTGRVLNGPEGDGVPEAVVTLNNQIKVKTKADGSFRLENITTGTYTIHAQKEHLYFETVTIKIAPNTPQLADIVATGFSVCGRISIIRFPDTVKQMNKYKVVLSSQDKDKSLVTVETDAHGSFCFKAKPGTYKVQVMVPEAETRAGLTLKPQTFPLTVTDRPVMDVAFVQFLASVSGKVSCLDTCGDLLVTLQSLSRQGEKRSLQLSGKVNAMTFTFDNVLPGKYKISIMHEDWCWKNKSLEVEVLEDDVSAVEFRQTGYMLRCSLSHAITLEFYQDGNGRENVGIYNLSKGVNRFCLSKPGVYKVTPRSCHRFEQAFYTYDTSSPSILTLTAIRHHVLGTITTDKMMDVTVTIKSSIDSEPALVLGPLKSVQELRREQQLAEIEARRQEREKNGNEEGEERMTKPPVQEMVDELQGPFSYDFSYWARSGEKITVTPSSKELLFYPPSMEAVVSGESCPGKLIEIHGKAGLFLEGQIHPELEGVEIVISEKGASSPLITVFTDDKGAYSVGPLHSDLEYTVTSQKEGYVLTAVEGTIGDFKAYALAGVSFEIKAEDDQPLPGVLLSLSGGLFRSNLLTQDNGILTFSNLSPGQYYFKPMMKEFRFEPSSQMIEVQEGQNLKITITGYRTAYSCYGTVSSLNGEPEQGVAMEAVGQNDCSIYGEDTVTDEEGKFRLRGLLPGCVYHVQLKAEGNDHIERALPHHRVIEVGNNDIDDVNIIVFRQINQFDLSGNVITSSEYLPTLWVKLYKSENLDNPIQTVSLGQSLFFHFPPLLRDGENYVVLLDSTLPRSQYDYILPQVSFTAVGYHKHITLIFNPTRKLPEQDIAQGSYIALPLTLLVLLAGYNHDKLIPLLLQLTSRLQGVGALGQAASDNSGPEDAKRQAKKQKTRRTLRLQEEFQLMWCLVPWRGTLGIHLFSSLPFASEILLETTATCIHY
UniProt P04150: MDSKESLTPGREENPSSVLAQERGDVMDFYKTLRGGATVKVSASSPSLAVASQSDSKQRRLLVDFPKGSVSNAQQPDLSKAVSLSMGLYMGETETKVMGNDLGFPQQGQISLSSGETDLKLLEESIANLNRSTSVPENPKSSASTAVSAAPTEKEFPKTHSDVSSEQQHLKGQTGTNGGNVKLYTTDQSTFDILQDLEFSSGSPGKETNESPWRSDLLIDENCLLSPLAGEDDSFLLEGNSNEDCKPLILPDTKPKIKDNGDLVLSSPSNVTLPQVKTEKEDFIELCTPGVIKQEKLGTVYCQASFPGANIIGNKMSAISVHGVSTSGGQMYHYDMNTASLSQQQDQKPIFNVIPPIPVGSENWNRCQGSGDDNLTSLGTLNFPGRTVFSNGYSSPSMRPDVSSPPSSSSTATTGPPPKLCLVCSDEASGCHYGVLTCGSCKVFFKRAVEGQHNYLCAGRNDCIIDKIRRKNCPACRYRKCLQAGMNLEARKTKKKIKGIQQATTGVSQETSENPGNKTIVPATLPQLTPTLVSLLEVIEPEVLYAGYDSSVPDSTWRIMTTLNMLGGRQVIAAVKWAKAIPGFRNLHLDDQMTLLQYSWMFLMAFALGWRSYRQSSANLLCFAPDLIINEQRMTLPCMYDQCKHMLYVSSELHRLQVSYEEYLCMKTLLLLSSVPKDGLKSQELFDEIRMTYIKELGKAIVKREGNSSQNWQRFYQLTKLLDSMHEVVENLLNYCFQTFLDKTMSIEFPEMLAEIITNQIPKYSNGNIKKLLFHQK
UniProt Q9HBL8: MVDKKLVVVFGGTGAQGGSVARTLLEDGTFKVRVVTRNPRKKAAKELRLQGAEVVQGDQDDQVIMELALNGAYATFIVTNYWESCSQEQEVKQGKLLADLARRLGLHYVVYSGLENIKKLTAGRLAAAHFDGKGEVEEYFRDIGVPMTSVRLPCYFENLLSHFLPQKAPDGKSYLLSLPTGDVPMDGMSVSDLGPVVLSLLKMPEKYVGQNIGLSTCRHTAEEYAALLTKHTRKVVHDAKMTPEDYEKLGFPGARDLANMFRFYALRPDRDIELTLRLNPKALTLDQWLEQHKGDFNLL

Key:
Assay in all cases: log2 fold change, soluble protein after heating vs DMSO (PISA); higher = thermal stabilisation; K562 lysate, 10 uM; active = over 0.2 and 3.5 SD of the protein, either way, in both replicates (recomputed)
vemurafenib = compound: CCCS(=O)(=O)Nc1ccc(F)c(C(=O)c2c[nH]c3ncc(-c4ccc(Cl)cc4)cc23)c1F [vemurafenib]
How it was run: (§1)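 A 30 min treatment with 10 μM compound was applied to crude K562 extract at 1 mg/mL protein in PBS pH 7.4 with 1 mM MgCl2. Heating for 3 min spanned 48°C-58°C, after which aliquots were pooled, adjusted to 0.5% NP-40 at 4°C and spun at 21,000xg for 90 min. TMTpro 16plex LC-MS/MS of the supernatant, with channel sums equalised, gave values recorded as log-two fold change in thermal stability against solvent controls, from duplicates.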

[1] = compound: CCCS(=O)(=O)Nc1ccc(F)c(C(=O)c2c[nH]c3ncc(Cl)cc23)c1F
How it was run: as §1

barasertib = compound: CCN(CCCOc1ccc2c(Nc3cc(CC(=O)Nc4cccc(F)c4)[nH]n3)ncnc2c1)CCOP(=O)(O)O [barasertib]
How it was run: as §1

[2] = compound: CC[C@@H]1C(=O)N(C)c2cnc(Nc3ccc(C(=O)NC4CCN(C)CC4)cc3OC)nc2N1C1CCCC1
How it was run: as §1

volasertib = compound: CC[C@@H]1C(=O)N(C)c2cnc(Nc3ccc(C(=O)N[C@H]4CC[C@H](N5CCN(CC6CC6)CC5)CC4)cc3OC)nc2N1C(C)C [volasertib]
How it was run: as §1

[3] = compound: CCn1c(C(=O)N(C2CC2)C2CC2)cc2c3c(ncn3C)c(Nc3cc(C)n(C)n3)nc21
How it was run: as §1

[4] = compound: CCn1cc(-c2ccnc3[nH]c(-c4cccc(CN(C)C)c4)cc23)c(-c2ccc(NC(=O)N(C)C)cc2)n1
How it was run: as §1

[5] = compound: CN1CCC(CNc2ccc3ncc(-c4cccc(OC(F)(F)F)c4)n3n2)CC1
How it was run: as §1

saracatinib = compound: CN1CCN(CCOc2cc(OC3CCOCC3)c3c(Nc4c(Cl)ccc5c4OCO5)ncnc3c2)CC1 [saracatinib]
How it was run: as §1

sotrastaurin = compound: CN1CCN(c2nc(C3=C(c4c[nH]c5ccccc45)C(=O)NC3=O)c3ccccc3n2)CC1 [sotrastaurin]
How it was run: as §1

alvocidib = compound: CN1CC[C@H](c2c(O)cc(O)c3c(=O)cc(-c4ccccc4Cl)oc23)[C@H](O)C1 [alvocidib]
How it was run: as §1

Tubastatin A = compound: CN1CCc2c(c3ccccc3n2Cc2ccc(C(=O)NO)cc2)C1 [Tubastatin A]
How it was run: as §1

[6] = compound: CNC(=O)C1=CC=CC=C1NC2=NC(=NC=C2Cl)NC3=C(C=C(C=C3)N4CCOCC4)OC
How it was run: as §1

defactinib = compound: CNC(=O)c1ccc(Nc2ncc(C(F)(F)F)c(NCc3nccnc3N(C)S(C)(=O)=O)n2)cc1 [defactinib]
How it was run: as §1

[7] = compound: CNc1nc(-c2ccc3c(N)n[nH]c3c2)cc(N2C[C@@H](C(=O)NC3CCCCC3)CC[C@H]2C)n1
How it was run: as §1

encorafenib = compound: COC(=O)N[C@@H](C)CNc1nccc(-c2cn(C(C)C)nc2-c2cc(Cl)cc(NS(C)(=O)=O)c2F)n1 [encorafenib]
How it was run: as §1

[8] = compound: COC(=O)[C@H](CCSC)NC(=O)C1=C(C=C(C=C1)NC[C@H](CS)N)C2=CC=CC=C2
How it was run: as §1

alisertib = compound: COc1cc(Nc2ncc3c(n2)-c2ccc(Cl)cc2C(c2c(F)cccc2OC)=NC3)ccc1C(=O)O [alisertib]
How it was run: as §1

[9] = compound: COc1cc2nc(-c3cc(F)ccc3O)nc(N[C@@H]3CNC[C@H]3C(C)(C)O)c2cc1OC
How it was run: as §1

gefitinib = compound: COc1cc2ncnc(Nc3ccc(F)c(Cl)c3)c2cc1OCCCN1CCOCC1 [gefitinib]
How it was run: as §1

Measured: log2 fold change

NUDCD1 (UniProt Q96RS6)
inactive: vemurafenib 0.007 | [1] 0.002 | barasertib -0.002 | [2] -0.014 | volasertib -0.005 | [3] -0.002 | [4] -0.065 | [5] 0.03 | saracatinib -0.003 | sotrastaurin -0.003 | alvocidib -0.02 | Tubastatin A -0.001 | [6] -0.005 | defactinib -0.043 | [7] -0.01 | encorafenib -0.007 | [8] 0.023 | alisertib 0.003 | [9] 0.005 | gefitinib -0.033

NUDC (UniProt Q9Y266)
inactive: vemurafenib -0.008 | [1] -0.014 | barasertib -0.025 | [2] 0.015 | volasertib 0.01 | [3] -0.005 | [4] 0.093 | [5] -0.029 | saracatinib 0.015 | sotrastaurin 0.011 | alvocidib 0.015 | Tubastatin A 0.05 | [6] -0.027 | defactinib -0.027 | [7] -0.014 | encorafenib -0.004 | [8] 0.003 | alisertib 0.025 | [9] 0 | gefitinib 0.013

NOL6 (UniProt Q9H6R4)
inactive: vemurafenib 0.024 | [1] 0.041 | barasertib 0.012 | [2] -0.065 | volasertib -0.064 | [3] 0.001 | [4] -0.033 | [5] 0.006 | saracatinib 0.038 | sotrastaurin 0.038 | alvocidib -0.052 | Tubastatin A -0.079 | [6] 0.021 | defactinib 0.012 | [7] 0.041 | encorafenib 0.045 | [8] -0.043 | alisertib -0.021 | [9] -0.019 | gefitinib -0.047

NNT (UniProt Q13423)
inactive: vemurafenib 0.012 | [1] -0.015 | barasertib 0.013 | [2] 0.022 | volasertib 0.031 | [3] -0.004 | [4] 0.041 | [5] -0.004 | saracatinib -0.025 | sotrastaurin -0.024 | alvocidib 0.006 | Tubastatin A 0.035 | [6] 0.021 | defactinib -0.005 | [7] -0.04 | encorafenib -0.018 | [8] -0.017 | alisertib -0.001 | [9] 0.021 | gefitinib 0.012

NOC2L (UniProt Q9Y3T9)
active: [7] 0.257
inactive: vemurafenib 0.04 | [1] 0.021 | barasertib 0.028 | [2] -0.029 | volasertib -0.035 | [3] 0.006 | [4] -0.079 | [5] -0.016 | saracatinib -0.078 | sotrastaurin 0.05 | alvocidib -0.009 | Tubastatin A -0.066 | [6] 0.043 | defactinib 0.121 | encorafenib 0.048 | [8] -0.02 | alisertib 0.01 | [9] 0.06 | gefitinib -0.03

NOMO2 (UniProt Q5JPE7)
inactive: vemurafenib 0.009 | [1] 0.008 | barasertib 0.011 | [2] -0.02 | volasertib -0.015 | [3] -0.024 | [4] -0.015 | [5] 0.022 | saracatinib 0.028 | sotrastaurin -0.006 | alvocidib -0.021 | Tubastatin A 0.023 | [6] 0.014 | defactinib 0.03 | [7] 0.013 | encorafenib 0 | [8] -0.024 | alisertib -0.002 | [9] -0.031 | gefitinib 0.021

NR3C1 isoform 3 (UniProt P04150)
inactive: vemurafenib -0.138 | [1] 0.027 | barasertib -0.385 | [2] -0.086 | volasertib -0.046 | [3] 0.001 | [4] 0.07 | [5] -0.081 | saracatinib 0.072 | sotrastaurin -0.016 | alvocidib -0.004 | Tubastatin A -0.088 | [6] 0.048 | defactinib 0.021 | [7] -0.093 | encorafenib 0.05 | [8] 0.029 | alisertib 0.045 | [9] -0.001 | gefitinib 0.013

NMRAL1 (UniProt Q9HBL8)
inactive: vemurafenib -0.03 | [1] -0.023 | barasertib 0.178 | [2] 0.045 | volasertib -0.046 | [3] 0.045 | [4] -0.092 | [5] 0.053 | saracatinib 0.011 | sotrastaurin -0.034 | alvocidib 0 | Tubastatin A 0.036 | [6] -0.044 | defactinib -0.003 | [7] 0.026 | encorafenib -0.003 | alisertib 0.021 | [9] 0.001 | gefitinib -0.002
active: [8] 0.406
